From PMC10661827
Results are given in words; binding and its absence hold for the method and conditions named. Binding seen in cells or lysates may run through a third protein. Some binding calls cover weakened binding; strength is not graded here.

Amino acid sequences for entries named in this document (tags omitted).
UniProt Q5S006: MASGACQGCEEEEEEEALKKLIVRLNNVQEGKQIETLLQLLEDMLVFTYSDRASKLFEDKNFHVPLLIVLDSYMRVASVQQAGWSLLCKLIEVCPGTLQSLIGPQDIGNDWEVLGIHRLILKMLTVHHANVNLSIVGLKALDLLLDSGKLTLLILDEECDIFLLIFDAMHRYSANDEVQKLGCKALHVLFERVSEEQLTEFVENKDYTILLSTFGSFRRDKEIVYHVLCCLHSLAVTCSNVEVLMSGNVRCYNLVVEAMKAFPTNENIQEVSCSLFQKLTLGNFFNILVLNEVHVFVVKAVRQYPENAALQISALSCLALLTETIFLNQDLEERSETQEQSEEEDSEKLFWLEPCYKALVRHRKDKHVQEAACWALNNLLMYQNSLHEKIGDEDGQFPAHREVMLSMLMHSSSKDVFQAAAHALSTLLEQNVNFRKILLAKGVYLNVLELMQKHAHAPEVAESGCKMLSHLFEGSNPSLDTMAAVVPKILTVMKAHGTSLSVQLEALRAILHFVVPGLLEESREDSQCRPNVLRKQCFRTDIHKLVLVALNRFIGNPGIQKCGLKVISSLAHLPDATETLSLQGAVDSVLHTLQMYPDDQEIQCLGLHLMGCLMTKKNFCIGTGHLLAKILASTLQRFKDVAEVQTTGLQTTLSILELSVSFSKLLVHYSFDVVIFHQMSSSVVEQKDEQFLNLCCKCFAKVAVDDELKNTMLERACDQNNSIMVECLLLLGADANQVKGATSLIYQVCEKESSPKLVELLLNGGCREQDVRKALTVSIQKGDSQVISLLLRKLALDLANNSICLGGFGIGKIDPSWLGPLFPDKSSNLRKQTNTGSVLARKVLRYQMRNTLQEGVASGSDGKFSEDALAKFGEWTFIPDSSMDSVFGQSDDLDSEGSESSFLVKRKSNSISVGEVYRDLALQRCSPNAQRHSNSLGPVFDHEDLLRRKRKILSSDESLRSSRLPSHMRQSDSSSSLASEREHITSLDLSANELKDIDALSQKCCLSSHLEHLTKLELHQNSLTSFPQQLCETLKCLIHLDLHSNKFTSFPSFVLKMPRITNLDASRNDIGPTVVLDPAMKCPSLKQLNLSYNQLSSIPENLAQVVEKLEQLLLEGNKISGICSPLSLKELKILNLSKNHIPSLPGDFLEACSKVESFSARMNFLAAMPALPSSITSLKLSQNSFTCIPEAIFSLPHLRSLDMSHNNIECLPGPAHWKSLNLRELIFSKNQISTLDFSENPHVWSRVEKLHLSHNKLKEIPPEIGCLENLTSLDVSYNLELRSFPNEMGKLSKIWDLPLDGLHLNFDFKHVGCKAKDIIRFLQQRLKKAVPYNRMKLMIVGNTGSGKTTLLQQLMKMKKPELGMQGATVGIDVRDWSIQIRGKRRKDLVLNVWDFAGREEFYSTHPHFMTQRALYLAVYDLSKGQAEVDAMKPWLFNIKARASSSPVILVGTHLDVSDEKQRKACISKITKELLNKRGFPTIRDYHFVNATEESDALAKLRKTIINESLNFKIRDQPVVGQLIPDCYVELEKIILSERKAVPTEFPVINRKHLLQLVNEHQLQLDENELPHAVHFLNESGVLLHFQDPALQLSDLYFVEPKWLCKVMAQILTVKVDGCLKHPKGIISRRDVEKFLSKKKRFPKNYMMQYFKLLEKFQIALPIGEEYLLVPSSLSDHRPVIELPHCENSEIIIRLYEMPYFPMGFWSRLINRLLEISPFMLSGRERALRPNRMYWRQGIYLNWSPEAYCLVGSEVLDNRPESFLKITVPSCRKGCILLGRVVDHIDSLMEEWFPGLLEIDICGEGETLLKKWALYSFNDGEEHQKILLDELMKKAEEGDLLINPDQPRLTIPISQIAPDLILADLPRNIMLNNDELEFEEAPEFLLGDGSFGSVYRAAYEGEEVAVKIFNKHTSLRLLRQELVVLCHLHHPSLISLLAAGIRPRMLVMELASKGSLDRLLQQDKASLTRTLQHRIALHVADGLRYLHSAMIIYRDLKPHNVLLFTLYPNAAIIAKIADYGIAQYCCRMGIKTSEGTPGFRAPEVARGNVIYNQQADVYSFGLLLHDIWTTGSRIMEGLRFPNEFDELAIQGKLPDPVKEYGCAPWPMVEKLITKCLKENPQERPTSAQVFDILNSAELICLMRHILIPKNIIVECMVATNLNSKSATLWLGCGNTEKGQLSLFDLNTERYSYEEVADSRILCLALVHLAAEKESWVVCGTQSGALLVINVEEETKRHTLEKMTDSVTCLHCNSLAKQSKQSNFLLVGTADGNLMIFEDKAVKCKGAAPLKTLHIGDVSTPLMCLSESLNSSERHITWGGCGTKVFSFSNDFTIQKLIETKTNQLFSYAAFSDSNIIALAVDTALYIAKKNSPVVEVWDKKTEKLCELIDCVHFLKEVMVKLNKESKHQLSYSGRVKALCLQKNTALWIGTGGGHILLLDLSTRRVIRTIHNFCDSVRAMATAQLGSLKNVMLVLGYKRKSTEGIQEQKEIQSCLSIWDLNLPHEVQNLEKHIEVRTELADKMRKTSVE
UniProt P14873: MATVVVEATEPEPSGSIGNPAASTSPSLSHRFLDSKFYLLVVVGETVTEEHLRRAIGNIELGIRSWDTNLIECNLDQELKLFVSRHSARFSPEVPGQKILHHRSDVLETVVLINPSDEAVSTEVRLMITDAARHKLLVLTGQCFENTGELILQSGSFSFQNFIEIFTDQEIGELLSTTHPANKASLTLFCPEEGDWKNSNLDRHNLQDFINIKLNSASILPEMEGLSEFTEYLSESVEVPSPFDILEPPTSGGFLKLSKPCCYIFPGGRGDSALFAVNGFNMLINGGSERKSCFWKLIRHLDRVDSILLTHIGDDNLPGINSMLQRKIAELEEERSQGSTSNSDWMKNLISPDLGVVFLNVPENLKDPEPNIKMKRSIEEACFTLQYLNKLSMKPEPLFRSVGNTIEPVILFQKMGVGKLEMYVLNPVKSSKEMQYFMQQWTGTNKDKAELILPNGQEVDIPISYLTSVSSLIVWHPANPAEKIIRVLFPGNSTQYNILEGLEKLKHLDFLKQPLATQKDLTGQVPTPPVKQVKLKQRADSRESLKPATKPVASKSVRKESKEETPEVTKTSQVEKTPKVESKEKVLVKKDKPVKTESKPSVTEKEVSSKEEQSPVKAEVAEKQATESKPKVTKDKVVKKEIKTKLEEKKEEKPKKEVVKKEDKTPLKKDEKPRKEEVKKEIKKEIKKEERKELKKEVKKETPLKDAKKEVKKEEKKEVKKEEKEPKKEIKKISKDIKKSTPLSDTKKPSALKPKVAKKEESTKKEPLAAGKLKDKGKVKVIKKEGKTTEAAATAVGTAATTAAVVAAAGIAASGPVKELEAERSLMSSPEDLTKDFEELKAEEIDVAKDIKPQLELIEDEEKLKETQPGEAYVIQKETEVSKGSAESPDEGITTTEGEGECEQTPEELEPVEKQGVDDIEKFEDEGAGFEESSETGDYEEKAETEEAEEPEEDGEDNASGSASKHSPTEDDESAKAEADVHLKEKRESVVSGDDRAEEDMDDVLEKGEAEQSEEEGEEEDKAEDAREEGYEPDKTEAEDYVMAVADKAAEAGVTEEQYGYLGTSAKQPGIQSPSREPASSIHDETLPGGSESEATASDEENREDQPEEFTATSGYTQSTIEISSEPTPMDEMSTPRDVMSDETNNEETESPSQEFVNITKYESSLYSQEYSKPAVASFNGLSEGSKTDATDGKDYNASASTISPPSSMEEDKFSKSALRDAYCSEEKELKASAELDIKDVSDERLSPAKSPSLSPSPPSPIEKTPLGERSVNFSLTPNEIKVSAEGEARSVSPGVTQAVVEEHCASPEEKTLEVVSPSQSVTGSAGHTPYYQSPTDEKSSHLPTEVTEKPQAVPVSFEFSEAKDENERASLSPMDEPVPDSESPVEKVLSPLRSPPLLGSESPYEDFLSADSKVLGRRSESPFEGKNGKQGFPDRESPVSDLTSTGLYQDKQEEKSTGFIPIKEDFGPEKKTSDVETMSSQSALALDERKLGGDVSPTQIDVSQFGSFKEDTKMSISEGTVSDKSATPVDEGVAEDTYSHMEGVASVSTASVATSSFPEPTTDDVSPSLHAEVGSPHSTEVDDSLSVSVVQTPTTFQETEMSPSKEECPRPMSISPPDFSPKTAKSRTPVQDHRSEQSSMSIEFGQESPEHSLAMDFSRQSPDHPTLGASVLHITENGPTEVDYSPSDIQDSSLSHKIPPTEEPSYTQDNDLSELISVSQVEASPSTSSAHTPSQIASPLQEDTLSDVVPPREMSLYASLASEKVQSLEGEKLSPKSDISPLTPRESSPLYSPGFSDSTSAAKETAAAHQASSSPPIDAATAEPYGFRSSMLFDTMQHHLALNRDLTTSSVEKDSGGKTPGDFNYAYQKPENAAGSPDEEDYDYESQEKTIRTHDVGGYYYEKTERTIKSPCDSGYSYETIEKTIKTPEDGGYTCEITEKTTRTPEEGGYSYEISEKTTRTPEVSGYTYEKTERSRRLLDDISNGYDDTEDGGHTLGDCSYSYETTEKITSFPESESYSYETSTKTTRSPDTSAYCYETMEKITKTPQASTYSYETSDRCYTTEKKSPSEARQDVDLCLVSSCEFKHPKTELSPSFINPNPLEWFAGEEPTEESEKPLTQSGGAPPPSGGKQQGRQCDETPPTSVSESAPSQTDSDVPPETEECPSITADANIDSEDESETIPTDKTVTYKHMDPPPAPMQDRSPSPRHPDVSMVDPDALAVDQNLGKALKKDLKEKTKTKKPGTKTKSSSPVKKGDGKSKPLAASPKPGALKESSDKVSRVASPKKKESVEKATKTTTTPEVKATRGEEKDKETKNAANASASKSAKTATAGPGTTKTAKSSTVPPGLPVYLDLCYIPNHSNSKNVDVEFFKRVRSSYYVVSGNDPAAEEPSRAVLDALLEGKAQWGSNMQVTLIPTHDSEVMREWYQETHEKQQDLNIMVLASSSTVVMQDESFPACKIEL

How the values were obtained:
[1] = target: leucine-rich repeat kinase 2 (LRRK2) (mouse (endogenous in N2a cells and C57BL/6 mouse cortex)) (UniProt Q5S006); experiment: co-IP; endogenous proteins in N2a cells; LRRK2 as bait, MAP1B detected; rabbit IgG as negative control
[2] = target: leucine-rich repeat kinase 2 (LRRK2) (mouse (endogenous in N2a cells and C57BL/6 mouse cortex)) (UniProt Q5S006); experiment: co-IP; anti-LRRK2 (1:50) on magnetic beads incubated with C57BL/6 mouse cortical lysates; washes, SDS-PAGE and immunoblotting; isotype rabbit IgG as negative control

binding [1]: binds
binding [2]: binds
Substance: microtubule-associated protein 1B (MAP1B) (from UniProt P14873 1-2464)
